Consider six substances from publication PMC12238680.

By UniProt entry, the sequences of proteins in these tests, tags left out.
UniProt Q9Y6M1: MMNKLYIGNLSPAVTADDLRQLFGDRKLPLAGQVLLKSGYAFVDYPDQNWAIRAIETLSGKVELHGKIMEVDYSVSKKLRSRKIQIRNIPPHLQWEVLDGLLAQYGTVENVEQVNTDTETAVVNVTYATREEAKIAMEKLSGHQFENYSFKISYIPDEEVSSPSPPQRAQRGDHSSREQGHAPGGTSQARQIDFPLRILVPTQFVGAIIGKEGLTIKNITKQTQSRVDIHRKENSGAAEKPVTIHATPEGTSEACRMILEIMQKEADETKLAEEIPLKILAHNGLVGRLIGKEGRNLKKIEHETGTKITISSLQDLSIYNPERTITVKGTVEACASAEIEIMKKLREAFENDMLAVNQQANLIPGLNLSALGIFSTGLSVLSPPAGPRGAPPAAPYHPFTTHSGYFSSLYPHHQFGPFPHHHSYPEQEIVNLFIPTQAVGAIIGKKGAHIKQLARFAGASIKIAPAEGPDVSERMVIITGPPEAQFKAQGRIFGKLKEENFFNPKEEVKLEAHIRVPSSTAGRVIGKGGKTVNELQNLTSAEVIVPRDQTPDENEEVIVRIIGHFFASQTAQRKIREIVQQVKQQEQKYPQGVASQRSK
UniProt O00425: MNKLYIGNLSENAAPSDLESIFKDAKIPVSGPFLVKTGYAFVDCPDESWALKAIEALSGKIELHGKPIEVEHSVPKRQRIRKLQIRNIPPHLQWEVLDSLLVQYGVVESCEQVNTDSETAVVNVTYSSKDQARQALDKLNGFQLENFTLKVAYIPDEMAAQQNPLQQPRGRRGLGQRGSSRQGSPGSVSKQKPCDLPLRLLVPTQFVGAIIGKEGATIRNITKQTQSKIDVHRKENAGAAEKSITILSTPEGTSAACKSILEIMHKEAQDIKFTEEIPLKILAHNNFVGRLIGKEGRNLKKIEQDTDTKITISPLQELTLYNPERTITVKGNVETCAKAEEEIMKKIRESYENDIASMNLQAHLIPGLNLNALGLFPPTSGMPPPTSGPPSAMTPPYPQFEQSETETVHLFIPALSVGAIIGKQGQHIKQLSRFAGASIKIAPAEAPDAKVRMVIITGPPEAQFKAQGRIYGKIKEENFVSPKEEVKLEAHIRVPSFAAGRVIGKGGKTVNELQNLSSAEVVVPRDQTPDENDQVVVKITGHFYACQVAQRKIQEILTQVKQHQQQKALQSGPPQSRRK
UniProt Q9NZI8: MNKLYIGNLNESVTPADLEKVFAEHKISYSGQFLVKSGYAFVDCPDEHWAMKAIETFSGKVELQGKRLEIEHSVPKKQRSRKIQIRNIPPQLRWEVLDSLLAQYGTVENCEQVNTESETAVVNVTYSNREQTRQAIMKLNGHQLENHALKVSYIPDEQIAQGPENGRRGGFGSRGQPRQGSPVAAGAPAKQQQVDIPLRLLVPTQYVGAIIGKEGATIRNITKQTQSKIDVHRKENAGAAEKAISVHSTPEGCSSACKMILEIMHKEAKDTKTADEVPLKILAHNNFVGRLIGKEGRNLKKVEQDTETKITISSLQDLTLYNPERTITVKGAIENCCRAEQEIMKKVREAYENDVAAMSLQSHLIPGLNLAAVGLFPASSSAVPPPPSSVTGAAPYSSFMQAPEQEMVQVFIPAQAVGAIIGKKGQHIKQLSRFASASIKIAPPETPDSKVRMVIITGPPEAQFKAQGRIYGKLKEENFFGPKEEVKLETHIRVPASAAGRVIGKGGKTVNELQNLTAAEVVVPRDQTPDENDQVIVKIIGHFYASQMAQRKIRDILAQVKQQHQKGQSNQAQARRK
UniProt Q16630: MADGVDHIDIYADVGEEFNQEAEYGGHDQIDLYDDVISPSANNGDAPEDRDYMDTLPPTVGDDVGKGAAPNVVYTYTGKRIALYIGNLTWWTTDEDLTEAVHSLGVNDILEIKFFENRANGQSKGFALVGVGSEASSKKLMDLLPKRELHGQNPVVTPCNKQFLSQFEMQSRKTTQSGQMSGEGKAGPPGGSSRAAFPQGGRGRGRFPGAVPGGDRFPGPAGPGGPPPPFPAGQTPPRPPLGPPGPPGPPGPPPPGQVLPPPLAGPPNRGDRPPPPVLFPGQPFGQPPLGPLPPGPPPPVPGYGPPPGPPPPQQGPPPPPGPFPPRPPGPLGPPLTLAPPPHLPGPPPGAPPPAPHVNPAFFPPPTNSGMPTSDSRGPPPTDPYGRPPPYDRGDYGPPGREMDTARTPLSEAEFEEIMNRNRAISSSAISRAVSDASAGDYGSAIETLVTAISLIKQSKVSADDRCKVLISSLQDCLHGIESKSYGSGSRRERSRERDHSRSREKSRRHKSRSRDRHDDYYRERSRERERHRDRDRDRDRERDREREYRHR

The target in test [1] is IGF2BP2 (human (endogenous in A2780, OVCAR3, SKOV3)) (UniProt Q9Y6M1). As to the kind of experiment: co-IP; endogenous proteins, A2780, OVCAR3 and SKOV3 lysates, with or without RNase A; IP of CPSF6 or of IGF2BP1, IGF2BP2, IGF2BP3.
The target of test [2] is IGF2BP3 (human (endogenous in A2780, OVCAR3, SKOV3)) (UniProt O00425). The test is described as above.
Test [3] has as its target IGF2BP1 (human (endogenous in A2780, OVCAR3, SKOV3)) (UniProt Q9NZI8). The description is as above.
The target in another test is Myc-IGF2BP3 (human) (UniProt O00425). As to the kind of experiment: co-IP; 293T cells co-transfected with Myc- and FLAG-tagged plasmids; Myc tag and FLAG tag as baits; without or with RNase A.
Another test concerns the target Myc-IGF2BP1 (human) (UniProt Q9NZI8). Described as above.
A further test addresses Myc-IGF2BP2 (human) (UniProt Q9Y6M1). Described as above.
Test [4] has as its target FLAG-tagged full-length (FL) recombinant human CPSF6, in OC cells (human) (UniProt Q16630). As to the kind of experiment: co-IP; FLAG-tagged CPSF6 (FL or truncated) expressed in OC cells, IP of the CPSF6 protein, blots for endogenous proteins; RNase A not added.
The target in test [5] is CPSF6 (human (endogenous in HeLa, A2780, OVCAR3, SKOV3)) (UniProt Q16630). As to the kind of experiment: co-IP; endogenous proteins, A2780, OVCAR3 and SKOV3 lysates, with or without RNase A; IP of CPSF6 or of IGF2BP1, IGF2BP2, IGF2BP3.
In test [6] the target is FLAG-CPSF6 full length (FL), in 293T cells (human) (UniProt Q16630). As to the kind of experiment: co-IP; 293T cells co-transfected with Myc- and FLAG-tagged plasmids; Myc tag and FLAG tag as baits; without or with RNase A.

These are yes or no findings as the source states them, for the method shown. Binding seen in cells or lysates may run through a third protein. Some binding calls cover weakened binding; strength is not graded here.

For the substance CPSF6 (from UniProt Q16630 1-551), the binding entry in test [1], in test [2] and in test [3] was “binds” throughout.

Consider “FLAG-CPSF6 full length (FL), in 293T cells (from UniProt Q16630 1-551)”, for which the binding entry with Myc-IGF2BP3 (human), in the test with Myc-IGF2BP1 (human) and with Myc-IGF2BP2 (human) was “binds” in each case.

As to IGF2BP2 (from UniProt Q9Y6M1 1-599), the binding result in [4] and in test [5] was “binds” throughout.

Turning to IGF2BP3 (from UniProt O00425 1-579), the binding result in test [4] and in [5] was “binds” throughout.

With Myc-IGF2BP2 (from UniProt Q9Y6M1 1-599), the binding entry in test [6] is on record as “binds”.

Myc-IGF2BP3 (from UniProt O00425 1-579): in test [6], the binding entry was “binds”.
